# Source: article doi:10.1101/059964
# Amino acid sequences for entries named in this document (tags omitted).
# UniProt Q92560: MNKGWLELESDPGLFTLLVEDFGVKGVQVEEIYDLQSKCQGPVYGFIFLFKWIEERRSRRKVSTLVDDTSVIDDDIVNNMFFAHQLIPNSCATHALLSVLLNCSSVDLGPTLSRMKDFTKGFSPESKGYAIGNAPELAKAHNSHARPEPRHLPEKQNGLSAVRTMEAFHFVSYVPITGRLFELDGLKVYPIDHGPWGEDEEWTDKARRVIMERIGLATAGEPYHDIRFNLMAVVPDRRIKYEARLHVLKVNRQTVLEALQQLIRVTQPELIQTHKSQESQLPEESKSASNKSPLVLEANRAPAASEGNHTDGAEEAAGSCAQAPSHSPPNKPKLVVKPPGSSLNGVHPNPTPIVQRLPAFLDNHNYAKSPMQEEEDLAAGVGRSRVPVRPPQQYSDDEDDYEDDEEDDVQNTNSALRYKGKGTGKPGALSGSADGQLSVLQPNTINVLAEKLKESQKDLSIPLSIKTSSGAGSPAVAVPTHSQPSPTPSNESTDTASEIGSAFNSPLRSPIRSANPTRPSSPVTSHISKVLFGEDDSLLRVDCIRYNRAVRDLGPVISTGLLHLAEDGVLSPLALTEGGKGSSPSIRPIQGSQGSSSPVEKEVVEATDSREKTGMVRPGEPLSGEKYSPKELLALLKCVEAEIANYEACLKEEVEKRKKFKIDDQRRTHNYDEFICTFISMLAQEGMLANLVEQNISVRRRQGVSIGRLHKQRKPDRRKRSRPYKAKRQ
# No constants are given. Whether binding was seen depends on the method and setting. In cells and extracts the contact can be indirect. A yes stands for co-enrichment or nearness to the bait. Other partners may have been found. For some assays here: A no says only that the protein was not detected with the bait.
# B1: MBD5 (protein, UniProt Q9P267 1-1494)
# chain: MNGGKECDGGDKEGGLPAIQVPVGWQRRVDQNGVLYVSPSGSLLSCLEQVKTYLLTDGTCKCGLECPLILPKVFNFDPGAAVKQRTAEDVKADEDVTKLCIHKRKIIAVATLHKSMEAPHPSLVLTSPGGGTNATPVVPSRAATPRSVRNKSHEGITNSVMPECKNPFKLMIGSSNAMGRLYVQELPGSQQQELHPVYPRQRLGSSEHGQKSPFRGSHGGLPSPASSGSQIYGDGSISPRTDPLGSPDVFTRSNPGFHGAPNSSPIHLNRTPLSPPSVMLHGSPVQSSCAMAGRTNIPLSPTLTTKSPVMKKPMCNFSTNMEIPRAMFHHKPPQGPPPPPPPSCALQKKPLTSEKDPLGILDPIPSKPVNQNPVIINPTSFHSNVHSQVPMMNVSMPPAVVPLPSNLPLPTVKPGHMNHGSHVQRVQHSASTSLSPSPVTSPVHMMGTGIGRIEASPQRSRSSSTSSDHGNFMMPPVGPQATSSGIKVPPRSPRSTIGSPRPSMPSSPSTKSDGHHQYKDIPNPLIAGISNVLNTPSSAAFPTASAGSSSVKSQPGLLGMPLNQILNQHNAASFPASSLLSAAAKAQLANQNKLAGNNSSSSSNSGAVAGSGNTEGHSTLNTMFPPTANMLLPTGEGQSGRAALRDKLMSQQKDALRKRKQPPTTVLSLLRQSQMDSSAVPKPGPDLLRKQGQGSFPISSMSQLLQSMSCQSSHLSSNSTPGCGASNTALPCSANQLHFTDPSMNSSVLQNIPLRGEAVHCHNANTNFVHSNSPVPNHHLAGLINQIQASGNCGMLSQSGMALGNSLHPNPPQSRISTSSTPVIPNSIVSSYNQTSSEAGGSGPSSSIAIAGTNHPAITKTTSVLQDGVIVTTAAGNPLQSQLPIGSDFPFVGQEHALHFPSNSTSNNHLPHPLNPSLLSSLPISLPVNQQHLLNQNLLNILQPSAGEGDMSSINNTLSNHQLTHLQSLLNNNQMFPPNQQQQQLLQGYQNLQAFQGQSTIPCPANNNPMACLFQNFQVRMQEDAALLNKRISTQPGLTALPENPNTTLPPFQDTPCELQPRIDPSLGQQVKDGLVVGGPGDASVDAIYKAVVDAASKGMQVVITTAVNSTTQISPIPALSAMSAFTASIGDPLNLSSAVSAVIHGRNMGGVDHDGRLRNSRGARLPKNLDHGKNVNEGDGFEYFKSASCHTSKKQWDGEQSPRGERNRWKYEEFLDHPGHIHSSPCHERPNNVSTLPFLPGEQHPILLPPRNCPGDKILEENFRYNNYKRTMMSFKERLENTVERCAHINGNRPRQSRGFGELLSTAKQDLVLEEQSPSSSNSLENSLVKDYIHYNGDFNAKSVNGCVPSPSDAKSISSEDDLRNPDSPSSNELIHYRPRTFNVGDLVWGQIKGLTSWPGKLVREDDVHNSCQQSPEEGKVEPEKLKTLTEGLEAYSRVRKRNRKSGKLNNHLEAAIHEAMSELDKMSGTVHQIPQGDRQMRPPKPKRRKISR
# Legend:
# OGT1 (human) = target: T1, OGT1 (human) (UniProt O15294); experiment: affinity purification with mass spectrometry
# T1 sequence: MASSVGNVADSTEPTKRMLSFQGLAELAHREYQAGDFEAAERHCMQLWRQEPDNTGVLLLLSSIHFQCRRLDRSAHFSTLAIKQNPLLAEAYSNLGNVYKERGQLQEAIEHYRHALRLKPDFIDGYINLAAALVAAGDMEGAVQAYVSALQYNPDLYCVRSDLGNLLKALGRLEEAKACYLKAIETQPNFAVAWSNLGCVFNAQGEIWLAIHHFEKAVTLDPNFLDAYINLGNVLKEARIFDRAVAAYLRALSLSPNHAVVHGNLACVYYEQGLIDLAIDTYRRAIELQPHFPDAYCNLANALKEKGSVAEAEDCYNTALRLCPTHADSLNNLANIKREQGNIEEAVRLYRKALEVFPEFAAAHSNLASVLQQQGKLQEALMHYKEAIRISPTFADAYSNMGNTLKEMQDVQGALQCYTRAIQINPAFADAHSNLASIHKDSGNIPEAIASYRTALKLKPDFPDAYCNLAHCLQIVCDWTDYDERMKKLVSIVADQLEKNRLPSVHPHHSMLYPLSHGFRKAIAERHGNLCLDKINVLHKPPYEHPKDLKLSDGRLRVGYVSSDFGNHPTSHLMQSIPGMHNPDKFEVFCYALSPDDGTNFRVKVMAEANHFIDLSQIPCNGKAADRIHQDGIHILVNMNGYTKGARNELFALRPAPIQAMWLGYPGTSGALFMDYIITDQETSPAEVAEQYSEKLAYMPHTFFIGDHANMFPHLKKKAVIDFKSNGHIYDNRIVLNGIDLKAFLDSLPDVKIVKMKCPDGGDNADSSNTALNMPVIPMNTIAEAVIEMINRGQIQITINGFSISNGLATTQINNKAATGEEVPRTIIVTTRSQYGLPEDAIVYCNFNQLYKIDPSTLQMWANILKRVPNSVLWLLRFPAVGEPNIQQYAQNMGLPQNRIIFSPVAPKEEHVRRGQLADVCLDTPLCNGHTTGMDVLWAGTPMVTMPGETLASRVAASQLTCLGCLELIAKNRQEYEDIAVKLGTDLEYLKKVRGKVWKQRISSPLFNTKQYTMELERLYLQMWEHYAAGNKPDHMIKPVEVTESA
# BAP1 (human) = BAP1 (human) (UniProt Q92560); experiment: affinity purification with mass spectrometry
binder,measurement,setting,value
B1,binding,OGT1 (human),no binding
same,binding,BAP1 (human),binds
